# Measurements: the supplement of paper PMC12067093, “Discovery and optimisation of a covalent ligand for TRIM25 and its application to targeted protein ubiquitination” (Chemical Science, 2025)
# The chains behind the UniProt entries cited, without tags or fusion partners. Where a name states a change or a piece, a line headed by the entry shows the natural chain unless it says otherwise.
# UniProt Q5SWA1: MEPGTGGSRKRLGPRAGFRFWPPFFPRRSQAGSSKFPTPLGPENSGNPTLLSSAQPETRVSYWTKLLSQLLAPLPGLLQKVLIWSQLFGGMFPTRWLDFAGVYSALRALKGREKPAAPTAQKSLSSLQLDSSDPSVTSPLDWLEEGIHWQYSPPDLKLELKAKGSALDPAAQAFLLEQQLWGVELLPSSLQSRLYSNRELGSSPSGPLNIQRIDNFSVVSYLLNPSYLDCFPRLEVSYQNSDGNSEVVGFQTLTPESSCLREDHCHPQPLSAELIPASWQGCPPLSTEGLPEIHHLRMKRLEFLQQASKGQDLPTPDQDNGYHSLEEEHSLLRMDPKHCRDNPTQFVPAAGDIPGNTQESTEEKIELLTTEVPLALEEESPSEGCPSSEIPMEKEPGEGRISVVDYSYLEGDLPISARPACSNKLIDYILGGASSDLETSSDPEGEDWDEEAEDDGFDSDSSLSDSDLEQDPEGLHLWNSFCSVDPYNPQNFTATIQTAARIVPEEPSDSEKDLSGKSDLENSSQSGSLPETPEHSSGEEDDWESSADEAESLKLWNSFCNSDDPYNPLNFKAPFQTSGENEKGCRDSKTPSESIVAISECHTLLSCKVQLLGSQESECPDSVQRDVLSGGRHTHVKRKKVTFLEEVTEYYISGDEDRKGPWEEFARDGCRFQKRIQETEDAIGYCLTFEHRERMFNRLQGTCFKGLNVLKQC
# UniProt Q5MIZ7: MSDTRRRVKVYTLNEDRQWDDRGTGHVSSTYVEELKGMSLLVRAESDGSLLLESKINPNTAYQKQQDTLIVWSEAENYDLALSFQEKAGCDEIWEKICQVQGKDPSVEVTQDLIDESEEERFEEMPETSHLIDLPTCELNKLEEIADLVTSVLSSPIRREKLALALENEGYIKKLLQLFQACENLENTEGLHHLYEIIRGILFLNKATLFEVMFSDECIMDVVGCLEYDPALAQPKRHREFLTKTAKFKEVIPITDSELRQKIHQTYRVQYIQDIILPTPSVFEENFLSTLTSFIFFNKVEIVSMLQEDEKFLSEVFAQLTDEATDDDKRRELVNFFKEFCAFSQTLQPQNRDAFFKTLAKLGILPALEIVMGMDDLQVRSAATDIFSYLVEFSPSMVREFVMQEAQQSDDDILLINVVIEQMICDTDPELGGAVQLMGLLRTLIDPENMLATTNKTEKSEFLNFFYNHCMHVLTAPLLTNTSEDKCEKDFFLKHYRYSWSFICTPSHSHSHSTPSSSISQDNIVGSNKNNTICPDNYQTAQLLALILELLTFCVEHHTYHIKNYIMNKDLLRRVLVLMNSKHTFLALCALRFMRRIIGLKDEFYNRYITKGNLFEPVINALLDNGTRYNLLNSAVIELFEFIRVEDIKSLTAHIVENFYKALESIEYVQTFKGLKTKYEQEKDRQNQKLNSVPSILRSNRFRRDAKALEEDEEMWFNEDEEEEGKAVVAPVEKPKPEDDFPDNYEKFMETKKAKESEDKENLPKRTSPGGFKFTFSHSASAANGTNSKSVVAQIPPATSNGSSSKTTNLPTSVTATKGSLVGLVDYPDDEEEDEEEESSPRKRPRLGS
# UniProt O75688: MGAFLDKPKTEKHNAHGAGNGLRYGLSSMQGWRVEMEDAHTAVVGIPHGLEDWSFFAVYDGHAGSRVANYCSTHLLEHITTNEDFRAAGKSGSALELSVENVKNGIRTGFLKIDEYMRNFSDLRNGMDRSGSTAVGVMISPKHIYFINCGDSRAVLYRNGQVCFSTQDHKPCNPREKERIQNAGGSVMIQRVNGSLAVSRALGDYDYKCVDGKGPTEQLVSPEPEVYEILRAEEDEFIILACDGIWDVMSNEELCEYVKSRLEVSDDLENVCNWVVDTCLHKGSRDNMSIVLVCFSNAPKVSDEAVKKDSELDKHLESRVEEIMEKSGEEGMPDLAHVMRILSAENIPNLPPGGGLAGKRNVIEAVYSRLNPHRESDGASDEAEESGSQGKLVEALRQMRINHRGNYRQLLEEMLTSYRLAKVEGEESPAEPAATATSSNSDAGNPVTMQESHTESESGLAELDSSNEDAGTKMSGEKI
# UniProt O43314: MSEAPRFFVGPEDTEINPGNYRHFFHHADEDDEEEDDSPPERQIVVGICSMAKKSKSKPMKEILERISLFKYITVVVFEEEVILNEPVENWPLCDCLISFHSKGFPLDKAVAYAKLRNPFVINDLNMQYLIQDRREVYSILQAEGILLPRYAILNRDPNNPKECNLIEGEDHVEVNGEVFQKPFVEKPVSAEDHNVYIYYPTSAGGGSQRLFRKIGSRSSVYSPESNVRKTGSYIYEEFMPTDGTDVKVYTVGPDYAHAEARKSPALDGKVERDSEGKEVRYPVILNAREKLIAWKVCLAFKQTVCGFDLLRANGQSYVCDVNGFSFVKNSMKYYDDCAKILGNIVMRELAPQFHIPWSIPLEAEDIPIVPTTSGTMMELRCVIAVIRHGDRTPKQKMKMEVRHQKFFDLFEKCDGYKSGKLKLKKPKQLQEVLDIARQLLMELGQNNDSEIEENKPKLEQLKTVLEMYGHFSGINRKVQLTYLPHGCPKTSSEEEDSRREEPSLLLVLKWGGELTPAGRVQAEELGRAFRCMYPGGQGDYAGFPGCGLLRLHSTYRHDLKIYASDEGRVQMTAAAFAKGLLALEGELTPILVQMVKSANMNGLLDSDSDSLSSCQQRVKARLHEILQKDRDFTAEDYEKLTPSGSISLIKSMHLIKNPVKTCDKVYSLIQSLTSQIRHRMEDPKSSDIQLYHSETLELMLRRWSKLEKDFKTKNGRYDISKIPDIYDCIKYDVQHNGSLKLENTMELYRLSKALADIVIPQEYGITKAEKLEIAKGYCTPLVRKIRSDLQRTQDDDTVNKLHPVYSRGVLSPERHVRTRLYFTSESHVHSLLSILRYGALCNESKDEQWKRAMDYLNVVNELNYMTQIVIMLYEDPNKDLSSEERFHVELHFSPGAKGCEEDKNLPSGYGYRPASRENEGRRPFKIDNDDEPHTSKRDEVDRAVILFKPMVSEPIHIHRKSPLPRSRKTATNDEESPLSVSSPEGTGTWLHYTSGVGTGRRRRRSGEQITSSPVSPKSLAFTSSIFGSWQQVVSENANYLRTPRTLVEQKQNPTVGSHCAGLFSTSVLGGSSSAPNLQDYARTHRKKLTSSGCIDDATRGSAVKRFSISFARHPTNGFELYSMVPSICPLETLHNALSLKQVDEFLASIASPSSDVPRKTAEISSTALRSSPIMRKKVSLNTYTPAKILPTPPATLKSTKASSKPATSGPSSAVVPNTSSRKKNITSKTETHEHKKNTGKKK
# UniProt P50897: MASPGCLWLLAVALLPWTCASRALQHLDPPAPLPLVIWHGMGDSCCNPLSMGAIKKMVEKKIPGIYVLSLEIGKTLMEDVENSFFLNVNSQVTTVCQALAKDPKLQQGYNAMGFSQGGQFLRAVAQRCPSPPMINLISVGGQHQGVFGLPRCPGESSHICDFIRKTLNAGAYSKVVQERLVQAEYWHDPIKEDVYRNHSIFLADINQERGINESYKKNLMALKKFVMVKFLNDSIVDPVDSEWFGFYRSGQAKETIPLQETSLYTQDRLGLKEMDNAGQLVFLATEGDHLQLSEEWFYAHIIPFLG
# UniProt Q9BZL4: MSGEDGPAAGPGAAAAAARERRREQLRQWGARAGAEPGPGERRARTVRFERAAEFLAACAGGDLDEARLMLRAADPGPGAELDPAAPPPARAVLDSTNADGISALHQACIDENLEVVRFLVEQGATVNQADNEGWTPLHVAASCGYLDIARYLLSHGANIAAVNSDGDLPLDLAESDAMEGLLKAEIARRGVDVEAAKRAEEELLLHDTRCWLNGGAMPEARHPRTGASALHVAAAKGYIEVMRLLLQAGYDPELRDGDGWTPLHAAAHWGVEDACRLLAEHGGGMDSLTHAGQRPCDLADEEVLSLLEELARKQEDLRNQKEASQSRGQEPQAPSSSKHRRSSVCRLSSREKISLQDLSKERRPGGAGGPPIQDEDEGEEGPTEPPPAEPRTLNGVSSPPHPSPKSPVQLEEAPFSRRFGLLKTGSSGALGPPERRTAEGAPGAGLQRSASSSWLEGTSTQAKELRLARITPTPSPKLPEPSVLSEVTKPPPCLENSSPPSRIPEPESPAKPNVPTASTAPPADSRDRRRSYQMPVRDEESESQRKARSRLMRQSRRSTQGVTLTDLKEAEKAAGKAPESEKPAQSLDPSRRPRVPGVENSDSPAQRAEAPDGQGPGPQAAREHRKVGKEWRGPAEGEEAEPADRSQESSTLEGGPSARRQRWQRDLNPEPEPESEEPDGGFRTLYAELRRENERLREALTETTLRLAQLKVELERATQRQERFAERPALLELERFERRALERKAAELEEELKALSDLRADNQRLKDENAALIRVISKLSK
# UniProt P62140, whole entry, looked up: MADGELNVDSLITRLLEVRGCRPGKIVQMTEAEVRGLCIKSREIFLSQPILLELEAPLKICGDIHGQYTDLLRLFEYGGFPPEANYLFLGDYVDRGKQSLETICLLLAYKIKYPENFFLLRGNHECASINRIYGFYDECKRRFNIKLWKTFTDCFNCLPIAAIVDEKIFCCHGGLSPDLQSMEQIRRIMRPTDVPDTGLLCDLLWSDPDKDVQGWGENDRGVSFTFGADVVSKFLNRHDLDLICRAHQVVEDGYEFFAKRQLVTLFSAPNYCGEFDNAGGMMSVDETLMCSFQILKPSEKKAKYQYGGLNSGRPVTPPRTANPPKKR
# UniProt P30154, whole entry, looked up: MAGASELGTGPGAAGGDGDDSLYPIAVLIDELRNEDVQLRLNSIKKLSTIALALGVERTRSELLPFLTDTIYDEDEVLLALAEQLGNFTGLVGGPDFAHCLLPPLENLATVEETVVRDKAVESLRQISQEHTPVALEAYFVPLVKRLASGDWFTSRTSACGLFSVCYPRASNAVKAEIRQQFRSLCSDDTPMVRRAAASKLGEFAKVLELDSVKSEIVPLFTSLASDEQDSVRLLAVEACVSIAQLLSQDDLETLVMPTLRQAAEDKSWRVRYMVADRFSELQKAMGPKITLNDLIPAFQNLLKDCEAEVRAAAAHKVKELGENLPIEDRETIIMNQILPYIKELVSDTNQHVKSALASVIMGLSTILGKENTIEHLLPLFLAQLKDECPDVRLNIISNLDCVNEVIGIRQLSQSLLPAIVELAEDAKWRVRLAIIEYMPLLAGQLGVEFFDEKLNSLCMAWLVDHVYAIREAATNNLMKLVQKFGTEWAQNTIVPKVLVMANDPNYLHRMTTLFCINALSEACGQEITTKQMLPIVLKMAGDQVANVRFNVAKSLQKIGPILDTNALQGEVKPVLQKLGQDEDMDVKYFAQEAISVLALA
# UniProt Q9HCU5: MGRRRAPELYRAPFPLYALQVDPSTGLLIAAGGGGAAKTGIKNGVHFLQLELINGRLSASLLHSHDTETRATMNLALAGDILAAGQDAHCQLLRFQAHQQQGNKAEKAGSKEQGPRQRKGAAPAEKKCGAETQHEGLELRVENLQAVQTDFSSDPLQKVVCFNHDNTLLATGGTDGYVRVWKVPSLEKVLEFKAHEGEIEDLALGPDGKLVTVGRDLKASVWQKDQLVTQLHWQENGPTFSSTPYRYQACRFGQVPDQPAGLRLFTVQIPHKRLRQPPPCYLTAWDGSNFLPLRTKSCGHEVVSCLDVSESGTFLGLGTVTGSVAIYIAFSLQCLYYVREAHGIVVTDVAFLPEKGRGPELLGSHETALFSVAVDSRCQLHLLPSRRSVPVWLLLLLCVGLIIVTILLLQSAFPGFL
# UniProt Q6ZMI0: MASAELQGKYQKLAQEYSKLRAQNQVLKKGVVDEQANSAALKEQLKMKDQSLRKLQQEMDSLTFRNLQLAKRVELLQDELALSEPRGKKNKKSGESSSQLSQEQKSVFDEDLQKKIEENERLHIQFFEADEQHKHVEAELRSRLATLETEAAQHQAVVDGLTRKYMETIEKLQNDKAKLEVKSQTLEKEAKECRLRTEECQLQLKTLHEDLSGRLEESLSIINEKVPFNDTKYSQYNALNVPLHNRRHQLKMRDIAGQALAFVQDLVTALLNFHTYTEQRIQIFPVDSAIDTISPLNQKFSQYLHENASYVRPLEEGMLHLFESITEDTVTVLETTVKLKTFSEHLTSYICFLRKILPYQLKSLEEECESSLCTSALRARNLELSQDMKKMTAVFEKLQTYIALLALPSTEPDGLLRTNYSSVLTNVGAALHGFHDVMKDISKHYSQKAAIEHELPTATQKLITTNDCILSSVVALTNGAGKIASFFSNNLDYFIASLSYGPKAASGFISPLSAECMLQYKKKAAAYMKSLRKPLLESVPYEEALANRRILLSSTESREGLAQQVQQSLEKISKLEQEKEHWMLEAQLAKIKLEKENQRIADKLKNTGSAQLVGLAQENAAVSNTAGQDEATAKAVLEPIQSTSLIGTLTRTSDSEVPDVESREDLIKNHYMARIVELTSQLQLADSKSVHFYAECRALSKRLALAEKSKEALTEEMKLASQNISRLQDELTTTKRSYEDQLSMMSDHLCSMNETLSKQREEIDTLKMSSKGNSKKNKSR
# This is one part of the list.
# Compound: Cc1cc(ccc1-c1ccccc1)C(=O)N1CCCN(CC1)C(=O)CCl [compound 10]
# Experiment: probe-labelled cysteine peptide fold change vs DMSO (competition) (log2 fold change); higher = less target engagement (more negative = stronger competition)
# Details: THP-1, incubation time: 4 h
# 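Further: competitive profiling in live THP-1 cells: cysteine peptides tagged with an iodoacetamide desthiobiotin (IA-DTB) probe, intensity after compound treatment relative to DMSO-treated cells.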
Target,probe-labelled cysteine peptide fold change (10 µM),probe-labelled cysteine peptide fold change (50 µM)
PPP1R15B_Q5SWA1_686_IQETEDAIGYCLTFEHR (UniProt Q5SWA1),-0.455,0.187
PPP4R3B_Q5MIZ7_98_ICQVQGK (UniProt Q5MIZ7),0.138,0.0388
PPP1R8_Q12972_16_AAAANSGSSLPLFDCPTWAGKPPPGLHLDVVK (UniProt Q12972),0.0744,0.366
PPM1B_O75688_149_HIYFINCGDSR (UniProt O75688),-0.0762,-0.0325
PPP1R3D_O95685_41_ACRPPGSPGR (UniProt O95685),-0.0976,0.0462
PPIP5K2_O43314_488_KVQLTYLPHGCPK (UniProt O43314),-0.245,-0.344
PPIP5K2_O43314_338_YYDDCAK (UniProt O43314),0.242,0.217
PPT1_P50897_152+160_CPGESSHICDFIRK (UniProt P50897),-0.599,-0.767
PPP1R12C_Q9BZL4_109_AVLDSTNADGISALHQACIDENLEVVR (UniProt Q9BZL4),0.0819,-0.0717
PPP1CB_P62140_244_FLNRHDLDLICR (UniProt P62140),0.0374,-0.0314
PPT1_P50897_152+160_CPGESSHICDFIR (UniProt P50897),-0.485,-0.321
PPP2R1B_P30154_524_MTTLFCINALSEACGQEITTK (UniProt P30154),0.149,0.116
PPP2CA_P67775_20_ELDQWIEQLNECK (UniProt P67775),-0.118,-0.0861
PREB_Q9HCU5_90_ATMNLALAGDILAAGQDAHCQLLR (UniProt Q9HCU5),-0.193,-0.0621
PPP1R21_Q6ZMI0_351_TFSEHLTSYICFLR (UniProt Q6ZMI0),-0.214,0.315
PRC1_O43663_14_RSEVLAEESIVCLQK (UniProt O43663),0.102,-0.333
PPM1F_P49593_359_ALTGSEDYLLLACDGFFDVVPHQEVVGLVQSHLTR (UniProt P49593),-0.274,-0.206
PPM1B_O75688_272_LEVSDDLENVCNWVVDTCLHK (UniProt O75688),0.126,0.113
PPM1L_Q5SGD2_340_GCPDNITVMVVK (UniProt Q5SGD2),-0.0702,0.0995

# Some of the entries above in a different format:
Target | probe-labelled cysteine peptide fold change (10 µM) | probe-labelled cysteine peptide fold change (50 µM)
PPP1R12C_Q9BZL4_109_AVLDSTNADGISALHQACIDENLEVVR (UniProt Q9BZL4) | 0.0819 | -0.0717
PPP1CB_P62140_244_FLNRHDLDLICR (UniProt P62140) | 0.0374 | -0.0314
